Reference: PubChem BioAssay AID540256 (National Center for Advancing Translational Sciences (NCATS), 2011)
Out of some 300,000 compounds screened, about 3,700 (1.2%) were called active. The shares of active, inactive and inconclusive entries below differ from those in the screen. Calls come from the whole dose curve; tested in HEK293 cells. Potencies of inconclusive entries are doubtful fits and often do not repeat.

assay: qHTS for Inhibitors of binding or entry into cells for Lassa Virus; details: Lassa virus pseudotype entry inhibition, cell reporter; activity change, negative = inhibition: at 37.9 µM (top of the series) unless noted; note: nearly all actives have a fitted effect of over 50% in size
% is set by controls: 0 for no effect and ±100 for the full control effect; potency is the fitted concentration of half-maximal effect.

| SMILES | Potency | activity change, negative = inhibition |
| --- | --- | --- |
| Cc1cc(C)cc(Nc2ncc3c(n2)CCCC3=O)c1 | inconclusive: 12.6 µM [inhibitor, partial curve, poor fit] |  |
| CN(C(=O)COC(=O)c1ccccc1SCC(=O)N1CCCC1)C1CCS(=O)(=O)C1 (stereo not given) |  | inactive: -0.145% |
| CC(C)CC(=O)Nc1ccc(Nc2ccccc2)cc1 | active: 3.55 µM |  |
| CCOC(=O)C1CCN(Cc2nnnn2CCc2ccccc2)CC1 |  | inactive: -19% |
| COc1ccc(NC(=O)Cn2nnnc2-c2ccccc2F)c(C)c1 |  | inactive: 27.8% [at 46.1 µM] |
| CCOC(=O)c1ccc(NC(=O)c2ccc3c(c2)OCO3)cc1 | inconclusive: 0.259 µM [inhibitor, single point] |  |
| Cc1cc([N+](=O)[O-])nn1CC(=O)Nc1ccc(F)cc1 |  | inactive: -1.13% |
| CCCc1cc(=O)n2[nH]c(C)nc2n1 |  | inactive: -1.15% |
| c1ccc(OCc2nnc3sc(-c4cccs4)nn23)cc1 | inconclusive: 6.31 µM [inhibitor, partial curve, poor fit] |  |
| Cc1ccc(S(=O)(=O)/N=C(/Nc2ccc([N+](=O)[O-])cc2[N+](=O)[O-])c2ccccc2)cc1 |  | inactive: -5.51% |
| CCCCn1c(=O)[nH]c(=O)c2c1nc(-c1ccccc1F)n2Cc1ccccc1OC | active: 11.2 µM |  |
| O=C(CSc1nc2ccccc2c(=O)n1NC(=O)c1ccccc1)c1ccccc1 | inconclusive: 6.51 µM [activator, single point] |  |
| CC(C)c1ccc(S(=O)(=O)NC2CCS(=O)(=O)C2)cc1 (stereo not given) | inconclusive: 3.55 µM [inhibitor, single point] |  |
| CCOc1ccc(C2c3[nH]c4ccccc4c3CCN2C(=O)CSc2ccccc2)cc1 (stereo not given) | active: 6.31 µM |  |
| COc1cccc(Oc2cn[nH]c2-c2ccc(O)cc2O)c1 |  | inactive: 7.08% |
| Cc1ccc(CNC(=O)c2cc3cc(C)ccc3n2C)cc1 | inconclusive: 1.58 µM [inhibitor, full curve, poor fit] |  |
| Oc1ccc(C=Nc2ccccc2-c2nc3ccccc3[nH]2)c(O)c1 | inconclusive: 31.6 µM [inhibitor, partial curve, poor fit] |  |
| COc1ccc(CN(C)C(=O)c2cccc(NC(=O)CC3SC(N4CCCCC4)=NC3=O)c2)c(OC)c1 (stereo not given) | active: 7.08 µM |  |
| O=S1(=O)CCN(Cc2csc(-c3cccs3)n2)CC1 | inconclusive: 2 µM [activator, partial curve, poor fit] |  |
| CCOCCCN1CC(=O)N2[C@@H](Cc3c([nH]c4ccccc34)C2(C)C)C1=O | inconclusive: 35.5 µM [activator, partial curve, poor fit] |  |
| COc1cccc(CSc2nnc(-c3ccncc3)n2N)c1 | inconclusive: 1 µM [inhibitor, single point] |  |
| N#C/C(=C\c1ccc(O)c(O)c1)C(=O)c1ccc(O)c(O)c1 | inconclusive: 0.0004 µM [activator] |  |
| CNC(=O)c1ccc(-c2nc(-c3ccccc3)cs2)cc1 | inconclusive: 5.62 µM [activator, single point] |  |
| Cc1ccc(C)c(S(=O)(=O)c2nnn3c2nc(NCc2cccs2)c2sccc23)c1 | inconclusive: 12.6 µM [inhibitor, partial curve, poor fit] |  |

4 records picked at random from those above:

| SMILES | Potency | activity change, negative = inhibition |
| --- | --- | --- |
| CCOCCCN1CC(=O)N2[C@@H](Cc3c([nH]c4ccccc34)C2(C)C)C1=O | inconclusive: 35.5 µM [activator, partial curve, poor fit] |  |
| Oc1ccc(C=Nc2ccccc2-c2nc3ccccc3[nH]2)c(O)c1 | inconclusive: 31.6 µM [inhibitor, partial curve, poor fit] |  |
| O=C(CSc1nc2ccccc2c(=O)n1NC(=O)c1ccccc1)c1ccccc1 | inconclusive: 6.51 µM [activator, single point] |  |
| CNC(=O)c1ccc(-c2nc(-c3ccccc3)cs2)cc1 | inconclusive: 5.62 µM [activator, single point] |  |

(further entries)

| SMILES | Potency | activity change, negative = inhibition |
| --- | --- | --- |
| Cc1ccc(/C(N)=N/OC(=O)c2cccs2)cc1 | inconclusive: 25.1 µM [inhibitor, single point] |  |
| Cc1cc(OCC(=O)Nc2ccccc2N2CCCCC2)ccc1C(C)C | inconclusive: 35.5 µM [inhibitor, single point] |  |
| COc1ccc(N2CCN(c3nc(NCCc4ccc(OC)c(OC)c4)nc(OC)n3)CC2)cc1 | inconclusive: 29.1 µM [inhibitor, single point] |  |
| O=C(NN(c1ccccc1)c1ccccc1)c1ccc([N+](=O)[O-])o1 |  | inactive: -17.3% [at 46.1 µM] |
| Cc1ccc(NC(=O)C2CCN(S(=O)(=O)c3cccs3)CC2)c(O)c1 | inconclusive: 11.2 µM [inhibitor, partial curve, poor fit] |  |
| Cc1ccc2nc(Cl)c3cc(C(=O)NCCCN4CCC(C)CC4)sc3c2c1 | inconclusive: 3.16 µM [activator, full curve, poor fit] |  |
| CC1CC(C)CN(C(=O)Cn2c(=O)n(CCCC(=O)NCc3ccco3)c(=O)c3sccc32)C1 (stereo not given) |  | inactive: 3.29% [at 46.1 µM] |
| COc1ccc(NC(=O)CN(C)CC(=O)Nc2ccc(Cl)cc2[N+](=O)[O-])cc1 | inconclusive: 6.31 µM [inhibitor, single point] |  |
| CCOc1ccc(-n2c(-c3ccccc3)nnc2-c2ccccc2)cc1 | inconclusive: 1.16 µM [inhibitor, full curve] |  |
| COc1ccc(N(C(=O)c2ccco2)S(=O)(=O)c2cc(Cl)c(Cl)cc2Cl)cc1 | inconclusive: 29.1 µM [inhibitor, single point] |  |
| CCOC(=O)CCC(NC(=O)c1ccc(NCN2C(=O)c3ccccc3C2=O)cc1)C(=O)OCC (stereo not given) | inconclusive: 1.26 µM [activator, single point] |  |
| CC1CCN(CCOc2ccc(Cl)c(Cl)c2)CC1 | inconclusive: 29.1 µM [inhibitor, partial curve, poor fit] |  |
| CC(C)CCNC(=O)c1ccc(Cn2c(SCC(=O)NC(C)C)nc3ccccc3c2=O)cc1 | inconclusive: 3.55 µM [inhibitor, full curve, poor fit] |  |
| O=c1c(Cl)c(NCc2ccccc2)cnn1C12CC3CC(CC(C3)C1)C2 | inconclusive: 0.112 µM [inhibitor, partial curve, poor fit] |  |
| Cc1cc(/C=N/O)c(C)n1-c1cccc(Cl)c1 | inconclusive: 35.5 µM [inhibitor, single point] |  |
| O=S(=O)(c1ccccc1)c1ncc(C(F)(F)F)cc1Cl | inconclusive: 35.5 µM [inhibitor, single point] |  |
| O=C(O)c1cc(-c2ccc(/C=N/N3C(=O)C4C5C=CC(CC5)C4C3=O)o2)ccc1Cl (stereo not given) |  | inactive: 17.1% |
| Cn1c(C(=O)NCc2ccccn2)cc2c(=O)n3ccccc3nc21 |  | inactive: 16.1% |
| Cc1ccc(Cl)cc1N1CCN(C(=O)c2cccn2-c2nnc(N3CCCCC3)s2)CC1 | inconclusive: 11.2 µM [activator, single point] |  |
| CSc1ccc(/C=N/n2c(C3CCCCC3)n[nH]c2=S)cc1 | inconclusive: 14.1 µM [inhibitor, single point] |  |
| O=C(COc1ccc2ccccc2c1)NNC(=O)c1cnccn1 |  | inactive: 8.21% |
| Cc1nn(-c2ccc(C(F)(F)F)cn2)c(C)c1Oc1ccccc1O | inconclusive: 11.2 µM [inhibitor, partial curve] |  |
| O=C1C(=O)N(C2CCCC2)C(=O)N1Cc1c(F)cccc1Cl |  | inactive: 17.6% |
| O=C(Nc1ccc2oc(-c3ccccc3)nc2c1)c1ccccc1F | inconclusive: 6.31 µM [activator, single point] |  |

| SMILES | Potency | activity change, negative = inhibition |
| --- | --- | --- |
| Cc1c(C(=O)OCC(C)C)[nH]c2c1C(=O)CC(c1ccco1)C2 (stereo not given) | inconclusive: 1.46 µM [inhibitor, full curve] |  |
| Cc1cc2n(n1)CCCN2C(=O)Nc1ccc(Cl)cc1 |  | inactive: 16.4% [at 46.1 µM] |
| NC12CC3CC(CC(C3)C1)C2 | inactive |  |
| O=C(COC(=O)c1ccc(O)cc1O)Nc1cc(-c2ccccc2)nn1-c1ccccc1 | inconclusive: 35.5 µM [inhibitor, single point] |  |
| COc1ccc(OC)c(NC(=O)c2cccc(Cn3cc(Br)c([N+](=O)[O-])n3)c2)c1 | inconclusive: 5.01 µM [inhibitor, partial curve] |  |
| CN(CC(=O)Nc1ccc(F)cc1)C(=O)c1cccc(S(=O)(=O)N2CCN(c3ccc(F)cc3)CC2)c1 | inconclusive: 25.1 µM [inhibitor, single point] |  |
| COc1ccccc1N(CC(=O)NCC(C)C)S(=O)(=O)c1cccs1 | inconclusive: 1.26 µM [inhibitor, single point] |  |
| CNC(=S)NNC(=O)c1ccc(N(C)C)cc1 | inconclusive: 35.5 µM [activator, single point] |  |
| Cc1ccc(CNC(=O)CCS(=O)(=O)c2cccc3nonc23)cc1 |  | inactive: -20.9% |
| O=C(Nc1ccc(Cl)cc1)N[C@@H]1c2c(ccc3ccccc23)OC[C@@H]1CO |  | inactive: -17.9% |
| Cc1nc(N2CCN(Cc3ccccc3)CC2)nc2c1C(=O)CCC2 |  | inactive: -16.2% |
| N#CCSc1nc(Nc2ccc3c(c2)OCO3)c2ccccc2n1 |  | inactive: -17.3% |
| CCCn1ccc2c(OCC(=O)NCc3ccc(F)cc3)cccc2c1=O | inconclusive: 1.58 µM [inhibitor, full curve, poor fit] |  |
| CCCCN(C)CC(O)Cn1cc(/C=C/C(=O)c2ccc(OC)c(OC)c2)c2ccccc21 (stereo not given) | inconclusive: 17.8 µM [inhibitor, single point] |  |
| CCC(C)(C)n1nnnc1C(c1cc2cc(C)cc(C)c2[nH]c1=O)N1CCCC1 (stereo not given) |  | inactive: 3.77% |
| CCCc1cc(N2CCN(C(=O)c3ccco3)CC2)n2c(nc3ccccc32)c1C#N | inconclusive: 20.6 µM [inhibitor, partial curve, poor fit] |  |
| O=C(C[n+]1ccc(C(=O)c2ccccc2)cc1)Nc1ccc(C(F)(F)F)cc1 |  | inactive: 14.9% [at 46.1 µM] |
| Cc1ccc(Cn2nnnc2CN2CCC(n3nnc4ccccc43)CC2)cc1 | inconclusive: 25.9 µM [inhibitor, partial curve, poor fit] |  |
| Cc1ccc2nc(NC(=O)CSc3nc(=O)n(CCCN(C)C)c4c3CCC4)sc2c1 | inconclusive: 25.1 µM [inhibitor, single point] |  |
| O=C(O)CCC(=O)Nc1ccc(/C=C/C(=O)C2CC2)cc1 |  | inactive: 1.08% |
| Cn1c(SCC(=O)NC2CCCC2)nc2c(c1=O)SCC2 | inconclusive: 17.8 µM [activator, single point] |  |
| S=C(NCCc1ccccc1)NC1CC2CCC(C1)N2Cc1ccccc1 (stereo not given) | inconclusive: 25.1 µM [inhibitor, partial curve, poor fit] |  |
